In patent publication US20070077628A1 one finds binding data, which are given here for 1 molecule.

By UniProt entry, the sequences of proteins in these tests, tags left out. Residues count along the entry.
UniProt Q99816, residues 2-390: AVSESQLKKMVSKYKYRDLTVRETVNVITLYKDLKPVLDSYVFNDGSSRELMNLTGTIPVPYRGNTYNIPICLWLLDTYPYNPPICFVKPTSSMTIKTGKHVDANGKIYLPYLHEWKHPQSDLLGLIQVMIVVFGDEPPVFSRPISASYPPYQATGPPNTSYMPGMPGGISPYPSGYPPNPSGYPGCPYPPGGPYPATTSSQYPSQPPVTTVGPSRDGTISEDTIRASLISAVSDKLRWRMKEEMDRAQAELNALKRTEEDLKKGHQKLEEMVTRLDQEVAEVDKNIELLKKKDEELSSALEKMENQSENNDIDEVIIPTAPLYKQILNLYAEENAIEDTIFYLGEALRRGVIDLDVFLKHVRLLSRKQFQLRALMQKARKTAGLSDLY

Results are given in words; binding and its absence hold for the method and conditions named. Binding seen in cells or lysates may run through a third protein. Some binding calls cover weakened binding; strength is not graded here. Where a sequence is shown, tags or fusion partners need not be part of it.

The experiment deals with endogenous Tsg101 of HEK-293T cells (UniProt Q99816). Kind of experiment: co-immunoprecipitation with an antibody to endogenous Tsg101, HEK-293T cells expressing HA-hTa1.

B1: HA-tagged human Ta1, wild type (enzyme, not shown: small tags and cut ends)
chain: MPLFFRKRKPSEEARKRLEYQMCLAKEAGADDILDISKCELSEIPFGAFATCKVLQKKVLIVHTNHLTSLLPKSCSLLSLATIKVLDLHDNQLTALPDDLGQLTALQVLNVERNQLMQLPRSIGNLTQLQTLNVKDNKLKELPDTVGELRSLRTLNISGNEIQRLPQMLAHVRTLEMLSLDASAMVYPPREVCGAGTAAILQFLCKESGLEYYPPSQYLLPILEQDGIENSRDSPDGPTDRFSREELEWQNRFSDYEKRKEQKMLEKLEFERRLELGQREHTQLLQQSSSQKDEILQTVKEEQSRLEQGLSEHQRHLDAERQRLQEQLKQTEQNISSRIQKLLQDNQRQKKSSEILKSLENERIRMEQLMSITQEETESLRRRDVASAMQQMLTESCKNRLIQMAYESQRQNLVQQACSSMAEMDERFQQILSWQQMDQNKAISQILQESAMQKAAFEALQVKKDLMHRQIRSQIKLIETELLQLTQLELKRKSLDTESLQEMISEQRWALSSLLQQLLKEKQQREEELREILTELEAKSETRQENYWLIQYQRLLNQKPLSLKLQEEGMERQLVALLEELSAEHYLPIFAHHRLSLDLLSQMSPGDLAKVGVSEAGLQHEILRRVQELLDAARIQPELKPPMGEVVTPTAPQEPPESVRPSAPPAELEVQASECVVCLEREAQMIFLNCGHVCCCQQCCQPLRTCPLCRQDIAQRLRIYHSS
For B1, the binding entry is listed as “binds”.
